In patent publication US20220119511A1, “COMPOSITIONS AND METHODS FOR TREATMENT OF DIABETES, OBESITY, HYPER-CHOLESTEROLEMIA, AND ATHEROSCLEROSIS BY INHIBITION OF SAM68” (The UAB Research Foundation, priority 2020, published 2022):
No constants are given. Whether binding was seen depends on the method and setting. In cells and extracts the contact can be indirect. Some entries that bind do so weakly or less than the wild type. Where a sequence is shown, tags or fusion partners need not be part of it.

By UniProt entry, the sequences of proteins in these tests, tags left out.
UniProt Q60749: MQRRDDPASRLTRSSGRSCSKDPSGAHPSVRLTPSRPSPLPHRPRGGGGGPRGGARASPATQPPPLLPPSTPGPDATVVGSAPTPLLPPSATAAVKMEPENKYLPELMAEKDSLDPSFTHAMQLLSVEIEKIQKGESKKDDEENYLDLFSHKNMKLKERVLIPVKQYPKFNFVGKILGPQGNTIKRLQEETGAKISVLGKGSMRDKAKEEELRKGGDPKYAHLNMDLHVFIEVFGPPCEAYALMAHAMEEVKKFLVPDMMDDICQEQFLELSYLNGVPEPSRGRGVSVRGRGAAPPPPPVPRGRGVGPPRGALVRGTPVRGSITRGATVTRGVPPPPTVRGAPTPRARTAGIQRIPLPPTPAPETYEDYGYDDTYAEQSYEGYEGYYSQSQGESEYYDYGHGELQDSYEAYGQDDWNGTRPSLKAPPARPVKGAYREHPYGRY

Assays:
[1] = target: T1, FLAG-tagged CRTC2 (pcDNA3-Flag-CRTC2) (UniProt Q3U182); assay: co-IP in co-transfected 293T cells (anti-Flag IP with anti-HA blot, and anti-HA IP with anti-Flag blot)
T1 sequence (looked up): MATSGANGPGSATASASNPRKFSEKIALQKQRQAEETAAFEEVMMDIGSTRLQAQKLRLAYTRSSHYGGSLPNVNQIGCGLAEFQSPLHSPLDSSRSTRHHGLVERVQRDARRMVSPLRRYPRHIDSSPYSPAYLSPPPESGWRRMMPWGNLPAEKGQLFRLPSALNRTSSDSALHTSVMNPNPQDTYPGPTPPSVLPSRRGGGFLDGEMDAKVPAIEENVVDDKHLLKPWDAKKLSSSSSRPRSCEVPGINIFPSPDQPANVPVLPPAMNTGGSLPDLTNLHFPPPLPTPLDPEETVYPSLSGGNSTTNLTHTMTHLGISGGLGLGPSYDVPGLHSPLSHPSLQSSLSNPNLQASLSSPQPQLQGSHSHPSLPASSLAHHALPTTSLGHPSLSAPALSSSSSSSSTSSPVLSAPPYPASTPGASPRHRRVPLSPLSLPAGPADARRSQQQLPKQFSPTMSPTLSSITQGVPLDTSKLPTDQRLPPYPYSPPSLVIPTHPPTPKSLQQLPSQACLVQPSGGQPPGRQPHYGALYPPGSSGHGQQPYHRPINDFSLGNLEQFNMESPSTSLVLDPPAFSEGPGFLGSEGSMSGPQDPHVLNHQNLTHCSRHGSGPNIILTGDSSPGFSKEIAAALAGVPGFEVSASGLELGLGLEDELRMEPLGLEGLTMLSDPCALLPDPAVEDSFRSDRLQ

[2] = target: T1, FLAG-tagged CRTC2 (pcDNA3-Flag-CRTC2); assay: co-IP in co-transfected 293T cells (FIG. 7C, 7D)
[3] = target: T1, FLAG-tagged CRTC2 (pcDNA3-Flag-CRTC2); assay: co-IP in co-transfected 293T cells (FIG. 8C)

Measured: binding

hemagglutinin (HA)-tagged Sam68, full-length (pcDNA3-HA-Sam68) (from UniProt Q60749 1-443)
binds: all assays above
